Reference: PubChem BioAssay AID1259254 (NCATS, 2017)
In all, the deposit lists about 59,000 reagents; shown is a part drawn at random. About 1,550 of all reagents (2.6%) count as active. 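G2 share is only a proxy for re-replication; each gene was hit by three separate siRNAs, and active genes were retested.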 The raw values are shown without normalisation. The numbers tell different reagents against one gene apart. Not given: the amount of reagent.

Aim: 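Finding genes that stop cells copying their DNA twice in one cycle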 (primary screen)
System: human HCT116 colorectal cancer cells
Reagent: single siRNA against human genes
Duration: 3 days
Detection: 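Nuclei stained with Hoechst and imaged; cell-cycle phase assigned by DNA content; G2 share scaled per plate, non-targeting siRNA 0%, GMNN siRNA 100%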
Scale: G2 robust z-score and G2 cells, % of GMNN control: higher = more G2 cells, more excess DNA replication; raw share of cells in G2: higher = larger share of cells with G2 DNA content
Active means: 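Active siRNAs have a G2 robust z of 5 or more median absolute deviations over the median, which in these data means about 38% or higher of GMNN control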

Gene | siRNA no. | G2 robust z-score | G2 cells, % of GMNN control | raw share of cells in G2 (%) | call
SEH1L | 1 | -0.599 | -1.25 | 3.69 | inactive
SEH1L | 2 | -0.572 | -1.06 | 3.14 | inactive
SEH1L | 3 | 1.65 | 14.6 | 6.82 | inactive
MRPL44 | 1 | -0.888 | -3.28 | 3.15 | inactive
MRPL44 | 2 | 0.773 | 8.41 | 8.38 | inactive
MRPL44 | 3 | -0.445 | -0.162 | 2.65 | inactive
PRXL2C | 1 | -0.527 | -0.741 | 3.34 | inactive
PRXL2C | 2 | -0.653 | -1.63 | 2.41 | inactive
PRXL2C | 3 | 0.367 | 5.55 | 4.52 | inactive
ZNF184 | 1 | 2.69 | 21.9 | 14.8 | inactive
ZNF184 | 2 | 0.352 | 5.44 | 6.05 | inactive
ZNF184 | 3 | -0.445 | -0.164 | 3.29 | inactive
ZFYVE27 | 1 | -0.452 | -0.21 | 3.02 | inactive
ZFYVE27 | 2 | -0.196 | 1.59 | 3.72 | inactive
ZFYVE27 | 3 | -0.654 | -1.63 | 2.95 | inactive
LAT | 1 | 1.1 | 10.7 | 7.94 | inactive
LAT | 2 | 3.47 | 27.4 | 14.9 | inactive
LAT | 3 | 2.42 | 20 | 9.56 | inactive
IFT172 | 1 | 2.69 | 21.9 | 12.6 | inactive
IFT172 | 2 | 1.72 | 15 | 10.5 | inactive
IFT172 | 3 | 0.797 | 8.57 | 6.29 | inactive
PSMB10 | 1 | -0.934 | -3.6 | 4.3 | inactive
PSMB10 | 2 | 3.52 | 27.7 | 14.7 | inactive
PSMB10 | 3 | -0.876 | -3.19 | 2.72 | inactive

In a second layout: 8 of the entries above.
ZNF184 #3
- G2 robust z-score: -0.445
- G2 cells, % of GMNN control: -0.164
- raw share of cells in G2 (%): 3.29
- call: inactive

ZFYVE27 #1
- G2 robust z-score: -0.452
- G2 cells, % of GMNN control: -0.21
- raw share of cells in G2 (%): 3.02
- call: inactive

ZFYVE27 #2
- G2 robust z-score: -0.196
- G2 cells, % of GMNN control: 1.59
- raw share of cells in G2 (%): 3.72
- call: inactive

ZFYVE27 #3
- G2 robust z-score: -0.654
- G2 cells, % of GMNN control: -1.63
- raw share of cells in G2 (%): 2.95
- call: inactive

LAT #1
- G2 robust z-score: 1.1
- G2 cells, % of GMNN control: 10.7
- raw share of cells in G2 (%): 7.94
- call: inactive

LAT #2
- G2 robust z-score: 3.47
- G2 cells, % of GMNN control: 27.4
- raw share of cells in G2 (%): 14.9
- call: inactive

LAT #3
- G2 robust z-score: 2.42
- G2 cells, % of GMNN control: 20
- raw share of cells in G2 (%): 9.56
- call: inactive

IFT172 #1
- G2 robust z-score: 2.69
- G2 cells, % of GMNN control: 21.9
- raw share of cells in G2 (%): 12.6
- call: inactive

Next reagents follow:
Gene | siRNA no. | G2 robust z-score | G2 cells, % of GMNN control | raw share of cells in G2 (%) | call
UBAP2L | 1 | 0.961 | 9.73 | 9.73 | inactive
UBAP2L | 2 | 0.000778 | 2.97 | 5.18 | inactive
UBAP2L | 3 | 3.57 | 28.1 | 13.6 | inactive
NNAT | 1 | -0.312 | 0.773 | 3.63 | inactive
NNAT | 2 | 1.72 | 15 | 11.4 | inactive
NNAT | 3 | -0.612 | -1.34 | 3.69 | inactive
LARP4 | 1 | -0.673 | -1.77 | 4.85 | inactive
LARP4 | 2 | 1.11 | 10.8 | 9.6 | inactive
LARP4 | 3 | -0.427 | -0.0384 | 4.47 | inactive
CFAP210 | 1 | 1.5 | 13.5 | 9.28 | inactive
CFAP210 | 2 | -0.523 | -0.71 | 2.88 | inactive
CFAP210 | 3 | -0.633 | -1.49 | 2.04 | inactive
SMAD1 | 1 | -0.31 | 0.787 | 3.77 | inactive
SMAD1 | 2 | -0.663 | -1.7 | 4.05 | inactive
SMAD1 | 3 | 1.26 | 11.9 | 7.41 | inactive
ZNF721 | 1 | -0.868 | -3.14 | 2.01 | inactive
ZNF721 | 2 | -0.0205 | 2.82 | 4.15 | inactive
ZNF721 | 3 | 2.39 | 19.8 | 10.5 | inactive
GNL3 | 1 | 1.08 | 10.6 | 7.45 | inactive
GNL3 | 2 | 0.42 | 5.92 | 8.85 | inactive
GNL3 | 3 | 0.565 | 6.94 | 6.49 | inactive
ZC3H11A | 1 | 0.383 | 5.67 | 7.34 | inactive
ZC3H11A | 2 | -0.49 | -0.478 | 3.04 | inactive
ZC3H11A | 3 | 1.43 | 13 | 10 | inactive
GDF2 | 1 | 2.23 | 18.7 | 14.1 | inactive
GDF2 | 2 | -0.0726 | 2.46 | 4.99 | inactive
GDF2 | 3 | 3.75 | 29.4 | 15 | inactive
NHS | 1 | -0.555 | -0.936 | 4.57 | inactive
NHS | 2 | -0.288 | 0.941 | 4.59 | inactive
NHS | 3 | 0.471 | 6.28 | 5.62 | inactive
C4orf36 | 1 | -1.28 | -6.07 | 1.89 | inactive
C4orf36 | 2 | -0.816 | -2.77 | 2.22 | inactive
C4orf36 | 3 | -0.969 | -3.85 | 1.18 | inactive
PACS2 | 1 | 3.84 | 30 | 16.7 | inactive
PACS2 | 2 | 0.13 | 3.88 | 5.74 | inactive
PACS2 | 3 | 1.55 | 13.9 | 8.36 | inactive
MRPS35 | 1 | -1.42 | -7.05 | 1.51 | inactive
MRPS35 | 2 | 0.386 | 5.68 | 7.16 | inactive
MRPS35 | 3 | 0.438 | 6.05 | 4.29 | inactive
TMEM120A | 1 | -0.665 | -1.71 | 1.89 | inactive
TMEM120A | 2 | -0.635 | -1.5 | 3.61 | inactive
TMEM120A | 3 | -1.26 | -5.9 | 1.71 | inactive
DYNC2I2 | 1 | 0.64 | 7.47 | 7.25 | inactive
DYNC2I2 | 2 | 1.29 | 12.1 | 6.78 | inactive
DYNC2I2 | 3 | -0.672 | -1.76 | 2.37 | inactive
